Several values for one entry are separate records, joined by “and”; a condition that tells them apart may be missing. Equal values may be shown once. Among all 310,000 compounds or so, about 17,000 (5.5%) were called active. This list was built around the results that the source calls inconclusive (neither active nor inactive); the mix of calls is not that of the screen. Calls come from the whole dose curve; as a rule, active = well fitted inhibition curve with a large enough effect; inconclusive = small, poorly fitted or top-dose-only effect, or effect the other way; inactive = no such curve, though single readings can be large or run the other way. Potencies beside an inconclusive call are fits to weak or partial responses and may not hold up.
Biological target: Nuclear receptor ROR-gamma (Mus musculus) (UniProt P51450)
Assay: qHTS for inhibitors of ROR gamma transcriptional activity; note: nearly all actives have a fitted effect of over 60% in size
Conditions: Drosophila S2 Gal4-RORgamma UAS-luciferase reporter, 20 h; series mostly up to 53.6 µM
Outline: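 Compounds are pin-transferred onto Drosophila Schneider cells expressing a copper-inducible Gal4–ROR gamma transactivation domain fusion. After 1 hr, copper sulfate is added to 700 uM final; luciferase is read 20 hr later.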
Potency is the fitted concentration of half-maximal effect.

Protein sequences, listed by entry. Tags and fused reporters are not part of them. Lines headed by an entry give the natural chain unless they say otherwise; changes in a name come on top.
UniProt P51450: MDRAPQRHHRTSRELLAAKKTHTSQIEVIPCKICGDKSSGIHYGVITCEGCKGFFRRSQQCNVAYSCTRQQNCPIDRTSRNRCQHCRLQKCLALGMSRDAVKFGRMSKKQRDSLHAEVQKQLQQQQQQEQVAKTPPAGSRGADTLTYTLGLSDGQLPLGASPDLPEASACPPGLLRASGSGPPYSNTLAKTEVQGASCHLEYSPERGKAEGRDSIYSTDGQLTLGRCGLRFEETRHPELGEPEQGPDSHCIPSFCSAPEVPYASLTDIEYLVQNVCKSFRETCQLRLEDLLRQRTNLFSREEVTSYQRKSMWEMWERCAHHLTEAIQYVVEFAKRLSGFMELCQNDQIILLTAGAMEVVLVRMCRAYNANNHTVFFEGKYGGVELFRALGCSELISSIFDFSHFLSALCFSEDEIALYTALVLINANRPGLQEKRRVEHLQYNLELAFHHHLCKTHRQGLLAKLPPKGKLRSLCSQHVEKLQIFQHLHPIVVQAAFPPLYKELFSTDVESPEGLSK

SMILES	Potency
CN(C)c1ccc(CNn2cnnc2)cc1	inactive
COc1ccc(C(=O)NC(=S)NCc2ccco2)cc1Br	active: 3.55 µM
O=C(Nc1nccs1)c1cnccn1	inconclusive: 15.8 µM [inhibitor, single point]
Cc1ccc(/C=C/C(=O)NC(=S)N2CCN(C)CC2)cc1	active: 14.1 µM
Cc1c(C(=O)NCc2ccco2)sc2nc(-c3ccccc3)cn12	inconclusive: 2.51 µM [activator, full curve]
O=C(CN1CCOCC1)Nc1ccc(Br)cn1	inactive
CC(C)c1ccccc1NC(=O)c1ccccc1NC(=O)C1CCCCC1	inconclusive: 31.6 µM [activator, single point]
Cc1ccc2c(c1)cc(C(=O)NCc1ccccc1)n2C	inconclusive: 0.501 µM [inhibitor, single point]
CC(C)(C)c1ccc(/C=N/NC(=S)Nc2cccnc2)cc1	active: 0.178 µM
COc1ccc(/C=C/C(=O)Nc2ccccc2C(=O)O)cc1OC	active: 631 nM and active: 2 µM and active: 3.55 µM
Cc1ccc(NCC(=O)N/N=C\c2cccc(O)c2)cc1	inactive
Cn1c(CSc2nc3ccccc3n2C)nc2ccccc21	active: 10 µM
COc1cc(/C=C2\SC(N)=NC2=O)cc(OC)c1	inconclusive: 35.5 µM [activator, single point]
O=C1CCCN1c1ccc(S(=O)(=O)NCc2ccc(F)cc2)cc1	inconclusive: 14.1 µM [activator, single point]
S=C(Nc1ccccc1)Nc1cc(Cl)ccc1Oc1ccccc1	inconclusive: 22.4 µM [inhibitor, single point]
CCCc1cc(=O)oc2c(C)c(OCC(=O)Nc3ccccn3)ccc12	inconclusive: 35.5 µM [inhibitor, single point]
COc1ccc2nc(SCc3ccccc3C)nc(C)c2c1	inconclusive: 15.8 µM [activator, partial curve]
COCCn1c(=O)c(-c2ccc(Cl)cc2)nc2cnc(OCc3ccccc3)nc21	inactive
Cc1ccc(-c2nc3ccccc3c(=O)n2O)cc1	inconclusive: 8.91 µM [inhibitor, partial curve, poor fit]
CN1CCN(c2nc3ccccc3nc2C(C#N)S(=O)(=O)c2ccccc2)CC1 (configuration not stated)	inactive
Cc1cc(C)c(C(=O)COC(=O)c2ccc([N+](=O)[O-])o2)cc1C	inconclusive: 28.2 µM [inhibitor, single point]
Cc1ccc(C)c(N(CC(=O)NCc2ccco2)C(=O)CNS(=O)(=O)c2ccc(F)cc2)c1	inconclusive: 12.6 µM [activator, single point]
Cc1c(/C(O)=C2/C(=O)C(=O)N(Cc3cccnc3)C2c2ccccn2)cnn1-c1ccccc1 (configuration not stated)	inconclusive: 5.01 µM [inhibitor, partial curve]
S=C(NCc1ccccc1)NCC1COc2ccccc2O1 (configuration not stated)	inconclusive: 35.5 µM [inhibitor, single point]

SMILES	Potency
COC(=O)[C@@H]1[C@@H]2C[C@H]3c4[nH]c5ccccc5c4CCN3C[C@@H]2CC[C@@H]1O	inactive
COc1cccc(Cn2c(=O)cnc3cnc(Nc4cccc(OC)c4)nc32)c1	inconclusive: 35.5 µM [activator, single point]
CCCn1c(NC(=O)c2cccc(C)c2C)nc2ccccc21	active: 2 µM
O=C(O)CC/C(=C\c1cc([N+](=O)[O-])ccc1Cl)c1nc2ccccc2s1	inactive
O=C(Nc1nc2ccccc2[nH]1)c1ccc(OC(F)F)cc1	active: 5.62 µM
Cc1ccnc(Nc2nc(-c3ccc(O)cc3)cs2)c1	active: 3.16 µM
COc1ccc(-c2c3c(=O)n(C)c(=O)n(C)c3cn2-c2cc(OC)ccc2OC)cc1	inconclusive: 10 µM [activator, partial curve]
O=C(NC(=S)NC1CCCCC1)c1ccccc1	active: 5.01 µM
Fc1ccc(-c2n[nH]c(=S)n2Cc2ccccc2)cc1	active: 2.82 µM
FC(F)Oc1ccc(/C=N/c2c(-c3ccc(OC(F)F)cc3)nc3n2CCS3)cc1	inconclusive: 3.16 µM [activator, partial curve]
Cc1ccc(C(=O)Cc2nc3ccccc3[nH]2)cc1	inconclusive: 35.5 µM [inhibitor, single point]
COc1ccc(OC)c(-c2nnc3n2N=C(c2ccccc2OC)CS3)c1	inactive
O=C(COc1ccc2ccccc2c1Br)Nc1ccncc1	inconclusive: 11.2 µM [activator, single point]
COc1ccc([C@H]2[C@H](C(=O)C(C)(C)C)N3N=Cc4ccccc4C3[C@]23N=C(c2ccccc2)OC3=O)cc1OC (some centres not stated)	inactive
CCOC(=O)C1(Cc2cccc(OC)c2)CCCN(Cc2c(C)nn(C(C)C)c2C)C1 (configuration not stated)	inconclusive: 10 µM [inhibitor, partial curve]
CCCc1cc(C(=O)Nc2ccc(C(=O)c3ccccc3)cc2)n(C)n1	inconclusive: 11.2 µM [activator, single point]
CCN1CCN(c2cc(C)c3cc(NC(=S)N4CCN(c5ccccc5)CC4)ccc3n2)CC1	inconclusive: 35.5 µM [inhibitor, single point]
Cc1cc(Cl)ccc1NC(=S)NCCC(c1ccccc1)c1ccccc1	active: 7.08 µM
COc1cc2c(cc1OC)C1Cc3ccc(OC)c(OC)c3CN1CC2 (configuration not stated)	inactive
COc1ccc(CCNC2CC(=O)N(C3CCCCC3)C2=O)cc1OC (configuration not stated)	inconclusive: 20 µM [activator, single point]
Cc1cccc(/C(N)=N/OC(=O)Cc2ccccc2)c1	inactive
O=C1NC(=Nc2ccccc2)SC1Cc1cccc(Cl)c1Cl (configuration not stated)	inconclusive: 35.5 µM [inhibitor, single point]
O=C(CCCN1C(=O)/C(=C/c2cccc(Br)c2)SC1=S)NCCCN1CCOCC1	active: 10 µM
CCNc1nc(NCC)nc(SCCOC(=O)Nc2ccc(Cl)cc2Cl)n1	inconclusive: 35.5 µM [activator, single point]

SMILES	Potency
Cc1cc(C)c2cc(C#N)c(NCCNC(=S)NCCCN3CCOCC3)nc2c1	inconclusive: 20 µM [inhibitor, partial curve]
Cc1ccc([N+](=O)[O-])cc1NC(=S)NC(=O)c1cccnc1	active: 12.6 µM
O=C(NCCC1CC1(Cl)Cl)c1ccc([N+](=O)[O-])cc1 (configuration not stated)	inactive
FC(F)(F)c1cccc(Cc2noc(CN3C[C@@H]4CCC[C@H]3C4)n2)c1	inactive
CCCOC(=O)c1ccc(NC(=O)/C=C/c2cccs2)cc1	inconclusive: 4.47 µM [activator, partial curve, poor fit]
COc1ccc(-c2nc(CCNS(=O)(=O)c3ccc4c(c3)OCCO4)cs2)cc1	inconclusive: 17.8 µM [activator, single point]
COc1ccc(C2c3[nH]c4ccccc4c3C[C@H]3C(=O)N(c4ccccc4C(=O)N4CCC[C@H]4C(=O)O)C(=O)N23)cc1 (some centres not stated)	inconclusive: 7.08 µM [activator, partial curve]
Oc1ccc(/C=C/c2cc(O)cc(O)c2)cc1	active: 1.78 µM and active: 3.98 µM and active: 2 µM
O=C1CSC(c2cccnc2)N1CCc1ccccn1 (configuration not stated)	inconclusive: 4.47 µM [inhibitor, full curve]
CC(C)(C)c1ccc(Cn2c(=N)n(CC(O)c3ccco3)c3ccccc32)cc1 (configuration not stated)	inconclusive: 12.6 µM [inhibitor, single point]
COC(=O)c1ccc(Oc2nc(C)cc(Oc3ccccc3)n2)cc1	inconclusive: 3.98 µM [inhibitor, single point]
CCOC(=O)N1CCN(C(c2cccnc2)c2ccc3cccnc3c2O)CC1 (configuration not stated)	active: 4.47 µM
Cc1c(-n2c(O)c(C3=c4ccccc4=NC3=O)sc2=S)c(=O)n(-c2ccccc2)n1C	inconclusive: 2 µM [inhibitor, full curve, poor fit]
COC(=O)c1cccc(NS(=O)(=O)c2ccc(NC(C)=O)cc2)c1C	inconclusive: 15.8 µM [activator, partial curve, poor fit]
CCOC(=O)CNC(=O)CSc1nnc(NC(=O)c2ccc(S(=O)(=O)N3CCOCC3)cc2)s1	inconclusive: 25.1 µM [inhibitor, single point]
Brc1ccc(-c2ccc(/C=N/Nc3nc4ccccc4[nH]3)o2)cc1	active: 4.47 µM
O=C(Nc1ccccc1C(=O)NCCCn1ccnc1)c1ccc(Cl)cc1Cl	inconclusive: 35.5 µM [activator, single point]
COc1ccc(N/C(C)=C/C(=S)Nc2ccccc2)cc1	inconclusive: 22.4 µM [inhibitor, single point]
CC(C)CNS(=O)(=O)c1ccc(CCC(=O)N2CCN(Cc3ccccc3)CC2)cc1	inactive
C/C(=N/NS(=O)(=O)c1ccc(Br)cc1)c1ccc(NC(=O)c2ccc(C)o2)cc1	inconclusive: 3.98 µM [activator, full curve]
CCOC(=O)C1CCN(CC(O)COc2ccc(C(C)=O)cc2)CC1 (configuration not stated)	inconclusive: 35.5 µM [inhibitor, single point]
O=C(N/N=C/c1cccc([N+](=O)[O-])c1)c1ccc(Br)cc1	inactive
CC#CC[N+](C)(C)CCCCCCCCCCCC	inconclusive: 3.55 µM [inhibitor, single point]
COc1cccc(-c2ccc3ncnc(NCc4cccnc4)c3c2)c1	inconclusive: 35.5 µM [activator, single point]

A run of entries of the results above:
SMILES	Potency
COc1ccc(-c2nc(CCNS(=O)(=O)c3ccc4c(c3)OCCO4)cs2)cc1	inconclusive: 17.8 µM [activator, single point]
COc1ccc(C2c3[nH]c4ccccc4c3C[C@H]3C(=O)N(c4ccccc4C(=O)N4CCC[C@H]4C(=O)O)C(=O)N23)cc1 (some centres not stated)	inconclusive: 7.08 µM [activator, partial curve]
Oc1ccc(/C=C/c2cc(O)cc(O)c2)cc1	active: 1.78 µM and active: 3.98 µM and active: 2 µM
O=C1CSC(c2cccnc2)N1CCc1ccccn1 (configuration not stated)	inconclusive: 4.47 µM [inhibitor, full curve]
CC(C)(C)c1ccc(Cn2c(=N)n(CC(O)c3ccco3)c3ccccc32)cc1 (configuration not stated)	inconclusive: 12.6 µM [inhibitor, single point]
COC(=O)c1ccc(Oc2nc(C)cc(Oc3ccccc3)n2)cc1	inconclusive: 3.98 µM [inhibitor, single point]
CCOC(=O)N1CCN(C(c2cccnc2)c2ccc3cccnc3c2O)CC1 (configuration not stated)	active: 4.47 µM
Cc1c(-n2c(O)c(C3=c4ccccc4=NC3=O)sc2=S)c(=O)n(-c2ccccc2)n1C	inconclusive: 2 µM [inhibitor, full curve, poor fit]
COC(=O)c1cccc(NS(=O)(=O)c2ccc(NC(C)=O)cc2)c1C	inconclusive: 15.8 µM [activator, partial curve, poor fit]
CCOC(=O)CNC(=O)CSc1nnc(NC(=O)c2ccc(S(=O)(=O)N3CCOCC3)cc2)s1	inconclusive: 25.1 µM [inhibitor, single point]
Brc1ccc(-c2ccc(/C=N/Nc3nc4ccccc4[nH]3)o2)cc1	active: 4.47 µM
O=C(Nc1ccccc1C(=O)NCCCn1ccnc1)c1ccc(Cl)cc1Cl	inconclusive: 35.5 µM [activator, single point]
COc1ccc(N/C(C)=C/C(=S)Nc2ccccc2)cc1	inconclusive: 22.4 µM [inhibitor, single point]
CC(C)CNS(=O)(=O)c1ccc(CCC(=O)N2CCN(Cc3ccccc3)CC2)cc1	inactive
C/C(=N/NS(=O)(=O)c1ccc(Br)cc1)c1ccc(NC(=O)c2ccc(C)o2)cc1	inconclusive: 3.98 µM [activator, full curve]
CCOC(=O)C1CCN(CC(O)COc2ccc(C(C)=O)cc2)CC1 (configuration not stated)	inconclusive: 35.5 µM [inhibitor, single point]
O=C(N/N=C/c1cccc([N+](=O)[O-])c1)c1ccc(Br)cc1	inactive

Source: PubChem BioAssay AID2551 (National Center for Advancing Translational Sciences (NCATS), 2010)
